The other results are listed elsewhere or left out.
What follows are sequences tested against T1, OsSMF1 (Oryza sativa, UniProt Q6ZLB0 1-436) (assay: protein-binding microarray (RPBM); PBS, 2% BSA, 51.3 ng/ul salmon testes DNA, 50 uM zinc acetate, 200 nM TF, 25 C, 1 h; high values mean tight binding). Conditions: protein: recombinant; tags: N-terminal polyhistidine and DsRed monomer fusion (pET32a); chain copies: 2; label: CyDye5-dUTP incorporated in the synthesized complementary strand; 3' TTTTT single-stranded linker to array surface; dsDNA, one strand shown.
T1 sequence: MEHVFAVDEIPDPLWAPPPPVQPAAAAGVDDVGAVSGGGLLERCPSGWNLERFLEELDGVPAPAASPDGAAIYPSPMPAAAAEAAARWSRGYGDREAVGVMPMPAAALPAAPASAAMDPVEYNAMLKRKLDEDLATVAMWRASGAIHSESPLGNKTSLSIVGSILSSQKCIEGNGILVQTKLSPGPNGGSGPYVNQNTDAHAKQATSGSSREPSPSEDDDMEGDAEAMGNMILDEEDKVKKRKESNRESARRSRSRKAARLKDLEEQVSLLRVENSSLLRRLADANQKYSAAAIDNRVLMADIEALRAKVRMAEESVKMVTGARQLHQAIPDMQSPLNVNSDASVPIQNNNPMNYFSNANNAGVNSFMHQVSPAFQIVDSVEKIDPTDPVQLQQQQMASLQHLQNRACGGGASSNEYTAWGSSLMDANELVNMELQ
In short: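 The binding signal for each feature is its fluorescence intensity in arbitrary units. An Axon 4000B scanner was used to read a custom Agilent array that had been made double-stranded with Cy5-dUTP primer extension, blocked with 2% BSA, incubated at 25 °C for 1 h with 200 nM protein in PBS, 2% BSA, salmon testes DNA and 50 µM zinc acetate, and washed. The protein was an N-terminal polyhistidine–DsRed transcription factor fusion from E. coli BL21-CodonPlus, purified on Ni–NTA.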
In the case of “GGCAAATCGGTAATTGCCATGTCACAAGAGTGGCAAATAGCGGAGTCACCTAGTGCAG”, the binding signal is reported as 8900 fluorescence intensity (a.u.). In the case of “CGCAGCCGCTGTCGTCGCGTCACCGTCTCCAAGCGCCTCTCGGAGTCACCTAGTGCAG”, the binding signal is reported as 9390 fluorescence intensity (a.u.). For “TCAGTCGTCATTCGTCAAGCTTAATGATGACAGGAAAATCCGGAGTCACCTAGTGCAG”, the binding signal was 3580 fluorescence intensity (a.u.). “ATCAAACTACACAGTGGCAAGTGCTCCTTCCAGCTATATACGGAGTCACCTAGTGCAG” was tested, and the binding signal was 3340 fluorescence intensity (a.u.). “GCCGTCGATCCAAGTCCACGCCGGCACGCCGGCGGCGGCTCGGAGTCACCTAGTGCAG” was tested, and the binding signal was 4480 fluorescence intensity (a.u.). For “AAATTACCATTGTTTAGGTGTATATGTGGCAAGTTTGTTACGGAGTCACCTAGTGCAG”, the binding signal was 4160 fluorescence intensity (a.u.). “GGAGTTGGCCAGGTGCGCAGGCATGGTCTACGTCATCACACGGAGTCACCTAGTGCAG” was tested, and the binding signal was 4500 fluorescence intensity (a.u.). “AAGCTCCTTCTGTCCGCCGCGTGGCGTACATCCAAGCGGTCGGAGTCACCTAGTGCAG” was tested, and the binding signal was 5120 fluorescence intensity (a.u.). “AGCTACGATACATGATGTACGTGTCAGGATACAAATCCTTCGGAGTCACCTAGTGCAG” was tested, and the binding signal was 3270 fluorescence intensity (a.u.). “CACCGCAGATTTCTGGCCCCACATGTCAGCTTGGCGTGTCCGGAGTCACCTAGTGCAG” was tested, and the binding signal was 4320 fluorescence intensity (a.u.). “CCAGATCTAGGCAGAGATCCCAACCTGTCATCATCACGCTCGGAGTCACCTAGTGCAG” was tested, and the binding signal was 3140 fluorescence intensity (a.u.). With “GCCCAGCCCAGCCCGCTCTTCGTTTCCTCTCTAGTGACTTCGGAGTCACCTAGTGCAG” the binding signal was 25800 fluorescence intensity (a.u.). In the case of “CCTCATCACCATACTCAACCCAGTCACCCGCACCGTTCTCCGGAGTCACCTAGTGCAG”, the binding signal is reported as 3900 fluorescence intensity (a.u.). With “AGGGTGTAAATGTACGCTGAAAATATCGTCAGATGTGCGGCGGAGTCACCTAGTGCAG” the binding signal was 4010 fluorescence intensity (a.u.). For “ACACGTCCTAAACCGTGGGACCCACATACACGTCATGCCACGGAGTCACCTAGTGCAG”, the binding signal was 10900 fluorescence intensity (a.u.). For “CACCTGTCACAGCCACTTGCCGGTGACGTCCGTTCGAAAGCGGAGTCACCTAGTGCAG”, the binding signal was 4520 fluorescence intensity (a.u.). For “AAACTAGTACACCTAAGAAGTTGCCAAAAGAAACTAGTAGCGGAGTCACCTAGTGCAG”, the binding signal was 3200 fluorescence intensity (a.u.). For “CTATCACCCGACGTGGATCCGTGCTGTTCAATTACAGAATCGGAGTCACCTAGTGCAG”, the binding signal was 5080 fluorescence intensity (a.u.). For “AAGCATCTGATACTTTTGCTGTGCTGTTCTTTAATTTACCCGGAGTCACCTAGTGCAG”, the binding signal was 4350 fluorescence intensity (a.u.). For “GTTTGAAGTTTGTGTGTGTAGGAAAGTTTTGATGTGATGGCGGAGTCACCTAGTGCAG”, the binding signal was 3830 fluorescence intensity (a.u.). “TCATGTGCTACTCGTTCTGCGTGAGTCGAAAATCTCTCTCCGGAGTCACCTAGTGCAG” was tested, and the binding signal was 25200 fluorescence intensity (a.u.). In the case of “CCCTCTGAGGTCAACCTGACAAGGAGTTGTGATCCTGTCTCGGAGTCACCTAGTGCAG”, the binding signal is reported as 3640 fluorescence intensity (a.u.). With “GCACGCCCTCGAGTTTCTCCTCCTCGTCGACGTCGACCTCCGGAGTCACCTAGTGCAG” the binding signal was 4270 fluorescence intensity (a.u.). In the case of “TTTACAGTATTTGTTATTTAAGACCTGTCATAATCTTTATCGGAGTCACCTAGTGCAG”, the binding signal is reported as 3380 fluorescence intensity (a.u.). With “TATTTTGGTATGACCAAAATAGAATAGTTCGCTCTTATGACGGAGTCACCTAGTGCAG” the binding signal was 30700 fluorescence intensity (a.u.). “AACCCGTTCGTGCAACGAGCATTAGGCTTATCGGATATATCGGAGTCACCTAGTGCAG” was tested, and the binding signal was 3700 fluorescence intensity (a.u.). For “CGCCGCGGGAGGAGGCGTCACCTTGTCACGCTCCTCGCCTCGGAGTCACCTAGTGCAG”, the binding signal was 4180 fluorescence intensity (a.u.). With “AGCAGCAACCACGTGTTTCATGAAATATATCGCGCGATGTCGGAGTCACCTAGTGCAG” the binding signal was 3680 fluorescence intensity (a.u.). With “CCGTCGAGTAGTAAACGGATGGACGGTCCAGATCACCCCGCGGAGTCACCTAGTGCAG” the binding signal was 4130 fluorescence intensity (a.u.). In the case of “AGAGTTTCTTGTTCAATATTAGATGTGTGCAACGAAATGTCGGAGTCACCTAGTGCAG”, the binding signal is reported as 15400 fluorescence intensity (a.u.). For “TTAAATTTGGAGTTAAACAGGTCATACTCATGATCAACTACGGAGTCACCTAGTGCAG”, the binding signal was 3660 fluorescence intensity (a.u.). “ACGGAATGTGGAGAGGTGGGTGGGGCCTCGTGGAGATTCCCGGAGTCACCTAGTGCAG” was tested, and the binding signal was 7550 fluorescence intensity (a.u.). “GAATGTTATATTGCCATGTCACCAAATTTAACTTACATGCCGGAGTCACCTAGTGCAG” was tested, and the binding signal was 6290 fluorescence intensity (a.u.). “GTCATCCATGACTCGGACGCGTCACCTCCTCTGCCTCTATCGGAGTCACCTAGTGCAG” was tested, and the binding signal was 13500 fluorescence intensity (a.u.). “CGCTTTAAGATTCGTGCCGGGACACGTGTCATCATCCTACCGGAGTCACCTAGTGCAG” was tested, and the binding signal was 12600 fluorescence intensity (a.u.). For “CCTCCTGCTGCTGCTGTTGTTGCGAGAGAGAGAGAGAGAGCGGAGTCACCTAGTGCAG”, the binding signal was 3250 fluorescence intensity (a.u.). For “GTAGACGAAGACCTGGCAAGTCCTTGGGCTTAAATCTCACCGGAGTCACCTAGTGCAG”, the binding signal was 17800 fluorescence intensity (a.u.). With “GCTCCCTTGTGTGACAACGCCGATCCTCACCTACACCTTCCGGAGTCACCTAGTGCAG” the binding signal was 3930 fluorescence intensity (a.u.). “AGGGAATAAAAGTTTAATTTATAGGTAAACTTTATATATACGGAGTCACCTAGTGCAG” was tested, and the binding signal was 27400 fluorescence intensity (a.u.). With “TGAGTTTGGGCGACACGCAAGCATGTATGTGTGGATATCACGGAGTCACCTAGTGCAG” the binding signal was 5410 fluorescence intensity (a.u.). “ATCAGAATATACTCATATAGTCACGTGAGATCTTGTTACGCGGAGTCACCTAGTGCAG” was tested, and the binding signal was 3380 fluorescence intensity (a.u.). For “CAGTTAGACAGAGACGTGCCACATTTATGCCACCGTTTGACGGAGTCACCTAGTGCAG”, the binding signal was 3160 fluorescence intensity (a.u.).

— article PMC7819943, “Rice protein-binding microarrays: a tool to detect cis-acting elements near promoter regions in rice”
